The values below come from publication PMC3577899.

Sequences and labels used below:
B1: PUF68 (protein, UniProt Q8T6B9 1-637)
chain: MGSNDRASRSPRSDDQREISDMPATKRTRSDSGKSTDSKIPYLSQPLYDLKQTGDVKFGPGTRSALLGLLGGALPKLSSEQHDLVSKAKKYAMEQSIKMVLMKQTLAHQQQQLATQRTQVQRQQALALMCRVYVGSISFELKEDTIRVAFTPFGPIKSINMSWDPITQKHKGFAFVEYEIPEGAQLALEQMNGALMGGRNIKVGRPSNMPQAQQVIDEVQEEAKSFNRIYVASIHPDLSEEDIKSVFEAFGPILYCKLAQGTSLHTHKGYGFIEYANKQAMDEAIASMNLFDLGGQLLRVGRSITPPNALACPTTNSTMPTAAAVAAAAATAKIQALDAVASNAVLGLSQNTPVMAAGAVVTKVGAMPVVSAATSAAALHPALAQAAPALLPPGIFQAPTPVAPSLLGVPAGLQPLQAVVPTLPPPALLATPTLPMTVGGVGVGLVPTVATLAGAEASKGAAAAAALSAAANNAAVTAANLSENIKKAHEKQQEELQKKLMDEGDVQTLQQQENMSIKGQSARQLVMQRLMRPVDSRVIILRNMVGPEDVDETLQEEIQEECSKFGTVSRVIIFNEKQTENEDDDEAEIIVKIFVEFSAGAEAMRGKEALDGRFFGGRRVVAELYDQGIFDQGDLSG
B2: snRNP70K (protein, UniProt P17133 1-448)
chain: MTQYLPPNLLALFAAREPIPFMPPVDKLPHEKKSRGYLGVAKFMADFEDPKDTPLPKTVETRQERLERRRREKAEQVAYKLEREIALWDPTEIKNATEDPFRTLFIARINYDTSESKLRREFEFYGPIKKIVLIHDQESGKPKGYAFIEYEHERDMHAAYKHADGKKIDSKRVLVDVERARTVKGWLPRRLGGGLGGTRRGGNDVNIKHSGREDNERERERYRLEREREDREGPGRGGGSNGLDARPGRGFGAERRRSRSRERRDRERDRGRGAVASNGRSRSRSRERRKRRAGSRERYDEFDRRDRRDRERERDRDREREKKKKRSKSRERESSRERRERKRERRDRERGTGSGGDVKERKPDFRDMDVIKIKEEPVDDGYPTFDYQNATIKREIDDEDEEKYRPPPAHHNMFSVPPPPILGRGNASTNPNPDNGQQSSGDPSWWRQ
B3: hrp48 (protein, UniProt P48809 1-421)
chain: MEEDERGKLFVGGLSWETTQENLSRYFCRFGDIIDCVVMKNNESGRSRGFGFVTFADPTNVNHVLQNGPHTLDGRTIDPKPCNPRTLQKPKKGGGYKVFLGGLPSNVTETDLRTFFNRYGKVTEVVIMYDQEKKKSRGFGFLSFEEESSVEHVTNERYINLNGKQVEIKKAEPRDGSGGQNSNNSTVGGAYGKLGNECSHWGPHHAPINMMQGQNGQMGGPPLNMPIGAPNMMPGYQGWGTSPQQQQYGYGNSGPGSYQGWGAPPGPQGPPPQWSNYAGPQQTQGYGGYDMYNSTSTGAPSGPSGGGSWNSWNMPPNSAGPTGAPGAGAGTATDMYSRAQAWATGGPSTTGPVGGMPRTGPGNSASKSGSEYDYGGYGSGYDYDYSNYVKQEGASNYGAGPRSAYGNDSSTQPPYATSQAV
B4: Recombination Repair Protein 1 (Rrp1) (protein, UniProt P27864 1-679)
chain: MPRVKAVKKQAEALASEPTDPTPNANGNGVDENADSAAEELKVPAKGKPRARKATKTAVSAENSEEVEPQKAPTAAARGKKKQPKDTDENGQMEVVAKPKGRAKKATAEAEPEPKVDLPAGKATKPRAKKEPTPAPDEVTSSPPKGRAKAEKPTNAQAKGRKRKELPAEANGGAEEAAEPPKQRARKEAVPTLKEQAEPGTISKEKVQKAETAAKRARGTKRLADSEIAAALDEPEVDEVPPKAASKRAKKGKMVEPSPETVGDFQSVQEEVESPPKTAAAPKKRAKKTTNGETAVELEPKTKAKPTKQRAKKEGKEPAPGKKQKKSADKENGVVEEEAKPSTETKPAKGRKKAPVKAEDVEDIEEAAEESKPARGRKKAAAKAEEPDVDEESGSKTTKKAKKAETKTTVTLDKDAFALPADKEFNLKICSWNVAGLRAWLKKDGLQLIDLEEPDIFCLQETKCANDQLPEEVTRLPGYHPYWLCMPGGYAGVAIYSKIMPIHVEYGIGNEEFDDVGRMITAEYEKFYLINVYVPNSGRKLVNLEPRMRWEKLFQAYVKKLDALKPVVICGDMNVSHMPIDLENPKNNTKNAGFTQEERDKMTELLGLGFVDTFRHLYPDRKGAYTFWTYMANARARNVGWRLDYCLVSERFVPKVVEHEIRSQCLGSDHCPITIFFNI

These are yes or no findings as the source states them, for the method shown. In cells and extracts the contact can be indirect. These calls come from enrichment with a bait or labelling near it, and not all partners need be listed.

This experiment deals with Polyoma (Glu-Glu) epitope-tagged full-length PSI (P element Somatic Inhibitor) (Drosophila). The experiment is described as follows: affinity purification with mass spectrometry; tandem immunoprecipitation from S2 RNP extract: anti-polyoma beads, elution with EYMPME peptide, RNase A treatment, then polyclonal anti-PSI beads (rabbit IgG beads in parallel as control); washes 20 mM Hepes-KOH pH 7.5, 200 mM KCl, 2 mM MgCl2, 0.05% NP-40; eluted with glycine pH 2.5.
As to B1, the binding entry is listed as “binds”.
The same measure for B2: “binds”; for B3: “binds”; for B4: “binds”.
